From the supplement of paper PMC10849652
The list shows a part of the results.

Protein sequences, listed by entry. Tags and fused reporters are not part of them. Lines headed by an entry give the natural chain unless they say otherwise; changes in a name come on top.
UniProt O95861: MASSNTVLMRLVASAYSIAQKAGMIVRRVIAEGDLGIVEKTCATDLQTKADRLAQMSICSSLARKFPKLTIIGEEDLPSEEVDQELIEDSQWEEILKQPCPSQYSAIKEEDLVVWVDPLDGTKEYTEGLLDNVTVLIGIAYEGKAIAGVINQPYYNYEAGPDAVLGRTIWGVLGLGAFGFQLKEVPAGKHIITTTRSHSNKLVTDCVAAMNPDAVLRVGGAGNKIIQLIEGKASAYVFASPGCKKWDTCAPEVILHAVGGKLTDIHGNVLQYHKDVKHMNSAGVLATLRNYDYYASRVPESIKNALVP
UniProt Q9UIG0: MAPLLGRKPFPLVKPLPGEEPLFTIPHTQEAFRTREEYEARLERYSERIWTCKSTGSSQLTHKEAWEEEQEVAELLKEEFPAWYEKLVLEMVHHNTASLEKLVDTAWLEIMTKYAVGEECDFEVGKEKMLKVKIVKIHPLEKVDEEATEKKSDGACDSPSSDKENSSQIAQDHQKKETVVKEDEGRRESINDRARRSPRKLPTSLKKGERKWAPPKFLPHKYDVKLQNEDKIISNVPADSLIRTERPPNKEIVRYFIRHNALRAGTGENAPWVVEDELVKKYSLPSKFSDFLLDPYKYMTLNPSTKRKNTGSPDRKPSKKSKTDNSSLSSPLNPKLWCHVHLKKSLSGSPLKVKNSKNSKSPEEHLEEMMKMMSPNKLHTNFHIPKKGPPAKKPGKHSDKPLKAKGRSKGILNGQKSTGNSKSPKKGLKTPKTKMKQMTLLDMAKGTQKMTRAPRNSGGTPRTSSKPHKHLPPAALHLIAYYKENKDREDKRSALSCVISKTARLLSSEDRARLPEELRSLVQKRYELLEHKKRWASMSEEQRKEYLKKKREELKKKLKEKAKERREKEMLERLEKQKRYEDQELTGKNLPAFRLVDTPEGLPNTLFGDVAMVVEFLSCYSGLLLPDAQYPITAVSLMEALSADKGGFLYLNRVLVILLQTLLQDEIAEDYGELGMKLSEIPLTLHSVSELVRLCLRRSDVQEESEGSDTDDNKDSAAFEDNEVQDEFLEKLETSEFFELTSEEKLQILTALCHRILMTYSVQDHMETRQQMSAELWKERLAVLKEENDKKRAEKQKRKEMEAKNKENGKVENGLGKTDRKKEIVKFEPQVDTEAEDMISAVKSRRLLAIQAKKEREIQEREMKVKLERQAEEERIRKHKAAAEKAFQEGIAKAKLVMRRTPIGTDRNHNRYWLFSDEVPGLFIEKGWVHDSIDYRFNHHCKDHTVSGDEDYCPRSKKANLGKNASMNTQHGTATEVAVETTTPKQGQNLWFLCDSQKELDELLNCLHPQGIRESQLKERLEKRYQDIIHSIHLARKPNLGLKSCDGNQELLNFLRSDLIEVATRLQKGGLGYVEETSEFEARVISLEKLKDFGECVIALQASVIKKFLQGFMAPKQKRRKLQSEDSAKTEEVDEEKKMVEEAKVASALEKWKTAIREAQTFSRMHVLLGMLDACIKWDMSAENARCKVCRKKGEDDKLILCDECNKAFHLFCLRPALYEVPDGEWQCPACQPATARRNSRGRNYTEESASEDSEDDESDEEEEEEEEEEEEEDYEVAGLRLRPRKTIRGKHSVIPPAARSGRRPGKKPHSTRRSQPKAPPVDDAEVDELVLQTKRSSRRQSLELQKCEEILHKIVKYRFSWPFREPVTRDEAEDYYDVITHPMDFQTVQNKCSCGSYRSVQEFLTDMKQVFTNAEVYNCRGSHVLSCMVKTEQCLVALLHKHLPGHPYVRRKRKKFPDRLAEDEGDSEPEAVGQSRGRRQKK
UniProt O15392, whole entry, looked up: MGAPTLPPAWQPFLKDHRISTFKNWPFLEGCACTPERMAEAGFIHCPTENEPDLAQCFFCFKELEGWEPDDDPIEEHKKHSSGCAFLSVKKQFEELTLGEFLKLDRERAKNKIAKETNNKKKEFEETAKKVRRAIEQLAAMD
UniProt Q9NWV8, whole entry, looked up: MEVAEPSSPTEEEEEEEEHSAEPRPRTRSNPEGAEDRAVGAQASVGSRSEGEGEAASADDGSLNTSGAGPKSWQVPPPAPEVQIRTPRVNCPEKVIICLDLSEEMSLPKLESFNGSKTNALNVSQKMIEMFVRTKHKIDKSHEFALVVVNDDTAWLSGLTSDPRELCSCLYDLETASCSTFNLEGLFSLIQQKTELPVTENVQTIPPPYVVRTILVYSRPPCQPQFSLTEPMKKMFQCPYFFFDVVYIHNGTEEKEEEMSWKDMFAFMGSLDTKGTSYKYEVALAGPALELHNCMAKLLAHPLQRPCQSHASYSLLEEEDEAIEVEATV
UniProt O60512: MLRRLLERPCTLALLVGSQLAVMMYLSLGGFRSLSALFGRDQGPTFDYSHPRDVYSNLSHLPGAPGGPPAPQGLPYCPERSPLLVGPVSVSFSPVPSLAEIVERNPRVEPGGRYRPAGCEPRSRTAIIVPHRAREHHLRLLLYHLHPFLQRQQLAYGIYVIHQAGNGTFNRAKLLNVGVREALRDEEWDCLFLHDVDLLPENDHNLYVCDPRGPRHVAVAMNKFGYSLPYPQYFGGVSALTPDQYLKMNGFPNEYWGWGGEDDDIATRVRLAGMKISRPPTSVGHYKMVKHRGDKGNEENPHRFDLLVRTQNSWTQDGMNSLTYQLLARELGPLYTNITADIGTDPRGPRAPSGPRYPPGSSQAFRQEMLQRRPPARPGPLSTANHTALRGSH
UniProt O15382: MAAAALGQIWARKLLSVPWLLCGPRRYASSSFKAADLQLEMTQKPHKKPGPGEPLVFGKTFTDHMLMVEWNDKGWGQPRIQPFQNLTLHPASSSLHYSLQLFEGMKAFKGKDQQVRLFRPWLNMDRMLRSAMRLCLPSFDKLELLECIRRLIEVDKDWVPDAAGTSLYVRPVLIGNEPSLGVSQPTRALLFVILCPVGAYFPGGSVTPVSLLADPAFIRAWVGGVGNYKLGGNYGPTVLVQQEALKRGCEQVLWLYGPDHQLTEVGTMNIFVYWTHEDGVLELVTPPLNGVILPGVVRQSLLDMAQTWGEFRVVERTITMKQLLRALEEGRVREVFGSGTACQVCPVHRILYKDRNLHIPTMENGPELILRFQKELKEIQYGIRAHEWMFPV
UniProt Q9UL15: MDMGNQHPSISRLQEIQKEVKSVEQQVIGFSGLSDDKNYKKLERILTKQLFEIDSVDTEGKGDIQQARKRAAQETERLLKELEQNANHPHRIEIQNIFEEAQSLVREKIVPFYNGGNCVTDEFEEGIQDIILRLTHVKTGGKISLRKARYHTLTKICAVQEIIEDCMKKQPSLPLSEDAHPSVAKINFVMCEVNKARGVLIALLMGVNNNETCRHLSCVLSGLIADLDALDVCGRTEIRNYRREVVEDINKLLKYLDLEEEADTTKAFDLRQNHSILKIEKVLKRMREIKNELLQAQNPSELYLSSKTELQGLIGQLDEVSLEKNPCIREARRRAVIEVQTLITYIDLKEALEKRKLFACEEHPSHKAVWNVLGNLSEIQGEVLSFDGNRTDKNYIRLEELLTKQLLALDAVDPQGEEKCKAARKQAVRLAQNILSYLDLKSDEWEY
UniProt Q96G01: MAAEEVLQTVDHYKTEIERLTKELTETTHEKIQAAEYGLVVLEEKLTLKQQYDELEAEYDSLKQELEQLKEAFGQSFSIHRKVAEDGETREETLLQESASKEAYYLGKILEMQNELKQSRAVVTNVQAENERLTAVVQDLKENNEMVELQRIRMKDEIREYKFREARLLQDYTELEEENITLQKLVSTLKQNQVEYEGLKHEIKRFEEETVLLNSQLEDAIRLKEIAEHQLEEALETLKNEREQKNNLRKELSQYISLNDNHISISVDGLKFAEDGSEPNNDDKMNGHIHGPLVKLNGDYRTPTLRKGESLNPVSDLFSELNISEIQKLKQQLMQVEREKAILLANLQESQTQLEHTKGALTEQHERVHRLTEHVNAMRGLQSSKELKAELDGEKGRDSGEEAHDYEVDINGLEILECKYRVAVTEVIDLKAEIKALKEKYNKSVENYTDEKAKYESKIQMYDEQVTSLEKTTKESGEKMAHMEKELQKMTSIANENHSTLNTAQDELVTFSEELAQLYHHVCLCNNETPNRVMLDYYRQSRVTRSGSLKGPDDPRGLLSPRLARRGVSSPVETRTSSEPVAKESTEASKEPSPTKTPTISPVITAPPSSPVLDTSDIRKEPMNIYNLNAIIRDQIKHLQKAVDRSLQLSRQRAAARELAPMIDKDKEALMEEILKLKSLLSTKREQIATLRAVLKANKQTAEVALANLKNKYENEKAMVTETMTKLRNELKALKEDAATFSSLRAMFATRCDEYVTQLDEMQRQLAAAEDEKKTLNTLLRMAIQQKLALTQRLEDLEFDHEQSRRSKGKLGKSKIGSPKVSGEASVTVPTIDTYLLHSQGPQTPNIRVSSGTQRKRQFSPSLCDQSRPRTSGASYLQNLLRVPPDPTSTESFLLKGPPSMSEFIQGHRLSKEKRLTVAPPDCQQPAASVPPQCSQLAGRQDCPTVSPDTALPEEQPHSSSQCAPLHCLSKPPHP
UniProt Q10589, whole entry, looked up: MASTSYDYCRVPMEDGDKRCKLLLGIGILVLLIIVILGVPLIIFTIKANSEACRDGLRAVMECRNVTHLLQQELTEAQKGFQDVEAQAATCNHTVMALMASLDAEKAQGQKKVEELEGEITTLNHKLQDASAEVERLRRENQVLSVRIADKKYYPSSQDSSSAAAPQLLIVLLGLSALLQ
UniProt O75934: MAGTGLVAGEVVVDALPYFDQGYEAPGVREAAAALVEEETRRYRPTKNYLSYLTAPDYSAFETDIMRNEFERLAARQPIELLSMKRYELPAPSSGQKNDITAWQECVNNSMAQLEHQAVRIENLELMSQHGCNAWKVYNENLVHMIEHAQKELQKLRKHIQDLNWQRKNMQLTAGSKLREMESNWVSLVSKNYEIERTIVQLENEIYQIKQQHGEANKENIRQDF
UniProt Q07817, whole entry, looked up: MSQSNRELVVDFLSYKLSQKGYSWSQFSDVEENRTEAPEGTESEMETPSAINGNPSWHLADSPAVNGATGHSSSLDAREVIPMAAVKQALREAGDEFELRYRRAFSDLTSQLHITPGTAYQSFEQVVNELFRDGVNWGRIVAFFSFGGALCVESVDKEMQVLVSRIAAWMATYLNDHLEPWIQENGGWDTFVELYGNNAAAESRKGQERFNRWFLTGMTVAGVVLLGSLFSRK
UniProt O15155: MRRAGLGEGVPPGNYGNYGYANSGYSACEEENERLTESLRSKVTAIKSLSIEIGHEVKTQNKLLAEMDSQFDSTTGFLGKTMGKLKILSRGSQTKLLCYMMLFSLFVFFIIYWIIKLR
UniProt P53004: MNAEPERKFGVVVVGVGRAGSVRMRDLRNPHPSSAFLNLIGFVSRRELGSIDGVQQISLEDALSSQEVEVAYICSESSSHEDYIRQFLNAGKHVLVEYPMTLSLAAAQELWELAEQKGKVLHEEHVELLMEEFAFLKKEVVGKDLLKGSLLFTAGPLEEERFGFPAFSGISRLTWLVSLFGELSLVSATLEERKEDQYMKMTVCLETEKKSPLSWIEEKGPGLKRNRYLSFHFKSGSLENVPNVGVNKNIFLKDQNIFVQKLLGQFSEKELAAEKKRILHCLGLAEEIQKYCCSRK
UniProt Q07812, whole entry, looked up: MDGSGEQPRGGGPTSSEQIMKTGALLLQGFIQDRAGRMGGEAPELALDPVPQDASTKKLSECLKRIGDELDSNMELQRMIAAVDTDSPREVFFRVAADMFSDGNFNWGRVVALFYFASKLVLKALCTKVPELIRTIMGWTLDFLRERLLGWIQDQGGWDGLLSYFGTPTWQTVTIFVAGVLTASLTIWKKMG
UniProt P56945: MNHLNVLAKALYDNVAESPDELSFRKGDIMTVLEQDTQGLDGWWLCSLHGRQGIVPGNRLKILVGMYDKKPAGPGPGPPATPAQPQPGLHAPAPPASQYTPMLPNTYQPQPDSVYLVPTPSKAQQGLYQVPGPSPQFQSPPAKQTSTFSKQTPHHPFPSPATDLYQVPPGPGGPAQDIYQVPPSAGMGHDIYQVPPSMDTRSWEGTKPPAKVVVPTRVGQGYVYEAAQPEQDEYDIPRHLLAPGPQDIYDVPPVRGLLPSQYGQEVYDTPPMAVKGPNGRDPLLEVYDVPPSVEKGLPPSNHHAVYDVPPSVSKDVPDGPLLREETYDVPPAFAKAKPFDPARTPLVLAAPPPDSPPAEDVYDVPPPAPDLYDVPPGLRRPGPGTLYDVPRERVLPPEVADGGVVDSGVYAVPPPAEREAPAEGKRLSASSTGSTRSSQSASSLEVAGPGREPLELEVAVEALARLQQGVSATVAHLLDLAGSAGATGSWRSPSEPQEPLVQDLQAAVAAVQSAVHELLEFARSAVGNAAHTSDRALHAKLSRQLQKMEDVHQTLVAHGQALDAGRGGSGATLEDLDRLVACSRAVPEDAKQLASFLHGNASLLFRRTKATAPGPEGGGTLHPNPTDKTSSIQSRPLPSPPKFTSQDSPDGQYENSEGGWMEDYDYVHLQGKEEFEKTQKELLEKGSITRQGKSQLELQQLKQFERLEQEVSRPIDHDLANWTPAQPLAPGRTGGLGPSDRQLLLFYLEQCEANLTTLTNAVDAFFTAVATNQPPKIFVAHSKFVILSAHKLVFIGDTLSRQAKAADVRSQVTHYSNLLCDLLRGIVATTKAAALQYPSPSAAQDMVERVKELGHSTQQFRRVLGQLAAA

Columns and labels:
Assay in all cases: log2 fold change, soluble protein after heating vs DMSO (PISA); higher = thermal stabilisation; K562 lysate, 10 uM; active = over 0.2 and 3.5 SD of the protein, either way, in both replicates (recomputed)
[1] = compound: C1=CC=C(C=C1)[C@H](COC2=CC3=C(C=C2)NC(=O)N3)NC(=O)C4=CC=CN(C4=O)CC5=CC(=C(C=C5)F)F
Outline: (§1)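 K562 pellets were dounce-homogenised in PBS pH 7.4 with 1 mM MgCl2, and the crude extract at 1 mg/mL protein was treated with 10 μM compound for 30 min. Aliquots were heated for 3 min across 48°C-58°C, pooled, and brought to 0.5% NP-40 at 4°C; soluble protein was the supernatant after 21,000xg for 90 min. Soluble protein was quantified by TMTpro 16plex LC-MS/MS with channel sums equalised, and reported as log2 fold change in thermal stability against DMSO controls, with values from duplicates.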

[2] = compound: CC1=C(SC2=C1C(=N[C@H](C3=NN=C(N32)C)CC(=O)N)C4=CC=C(C=C4)Cl)C
Outline: as §1

[3] = compound: CC1=C2C(=CC=C1)N=C(N(C2=O)C3=CC=CC=C3C)CN4C=NC5=C(N=CN=C54)N
Outline: as §1

[4] = compound: Cc1sc2c(c1C)C(c1ccc(Cl)cc1)=N[C@@H](CC(=O)OC(C)(C)C)c1nnc(C)n1-2
Outline: as §1

[5] = compound: c1ccc([C@@H]2C[C@H]2NC2CCNCC2)cc1
Outline: as §1

Measured: log2 fold change

BRAP (UniProt Q7Z569)
inactive: [1] 0.016 | [2] -0.013 | [3] 0.011 | [4] 0.006 | [5] -0.046

BPNT1 (UniProt O95861)
inactive: [1] 0.033 | [2] -0.008 | [3] -0.009 | [4] 0.01 | [5] -0.033

BLM (UniProt P54132)
inactive: [1] 0.059 | [2] 0.03 | [3] -0.005 | [4] -0.002 | [5] 0.114

BTF3 (UniProt P20290)
inactive: [1] 0.009 | [2] -0.006 | [3] -0.013 | [4] -0.017 | [5] 0.012

BAZ1B (UniProt Q9UIG0)
inactive: [1] 0.052 | [2] -0.098 | [3] -0.055 | [4] -0.015 | [5] 0.058

BIRC5 (UniProt O15392)
inactive: [1] 0 | [2] 0.102 | [3] 0.023 | [4] -0.04 | [5] 0.016

BABAM1 (UniProt Q9NWV8)
inactive: [1] 0.081 | [2] 0.005 | [3] 0.067 | [4] -0.008 | [5] -0.036

B4GALT3 (UniProt O60512)
inactive: [1] 0.004 | [2] 0.032 | [3] 0.095 | [4] 0.016 | [5] 0.096

BCAT2 (UniProt O15382)
inactive: [1] 0.024 | [2] 0.028 | [3] -0.011 | [4] -0.025 | [5] -0.048

BAG5 isoform 2 (UniProt Q9UL15)
inactive: [1] 0.043 | [2] 0.027 | [3] 0.047 | [4] 0.021 | [5] -0.021

Looked up one by one from the list above (two):
B4GALT3 (UniProt O60512)
inactive: [1] 0.004 | [2] 0.032 | [3] 0.095 | [4] 0.016 | [5] 0.096

BABAM1 (UniProt Q9NWV8)
inactive: [1] 0.081 | [2] 0.005 | [3] 0.067 | [4] -0.008 | [5] -0.036

Additional results:

BAG6 isoform 3 (UniProt P46379)
inactive: [1] -0.011 | [2] 0.025 | [3] -0.007 | [4] -0.039 | [5] 0.075

BICD1 (UniProt Q96G01)
inactive: [1] 0.04 | [2] 0.006 | [3] -0.022 | [4] 0.046 | [5] 0.027

BMP2K (UniProt Q9NSY1)
inactive: [1] -0.046 | [2] -0.121 | [3] -0.09 | [4] 0 | [5] -0.146

BST2 (UniProt Q10589)
inactive: [1] -0.022 | [2] -0.003 | [3] -0.037 | [4] 0.014 | [5] -0.045

BCAS2 (UniProt O75934)
inactive: [1] 0.006 | [2] -0.023 | [3] 0.028 | [4] 0.015 | [5] 0.04

BRCC3 (UniProt P46736)
inactive: [1] 0.002 | [2] 0.004 | [3] -0.036 | [4] 0.018 | [5] 0.004

BCL2L1 (UniProt Q07817)
inactive: [1] -0.108 | [2] 0.045 | [3] 0.023 | [4] 0.011 | [5] -0.027

BET1 (UniProt O15155)
inactive: [1] -0.053 | [2] 0.013 | [3] 0.032 | [4] 0.038 | [5] 0.009

BLVRA (UniProt P53004)
inactive: [1] -0.033 | [2] 0.034 | [3] -0.026 | [4] 0.009 | [5] 0.015

BORA (UniProt Q6PGQ7)
inactive: [1] -0.036 | [2] 0.014 | [3] -0.251 | [4] 0.158 | [5] -0.126

BAX isoform 2 (UniProt Q07812)
inactive: [1] -0.008 | [2] -0.003 | [3] 0.007 | [4] -0.067 | [5] 0.043

BCAR1 isoform 6 (UniProt P56945)
inactive: [1] 0.01 | [2] 0.013 | [3] -0.045 | [4] -0.043 | [5] 0.107

BABAM2 (UniProt Q9NXR7)
inactive: [1] 0.023 | [2] -0.045 | [3] 0.015 | [4] -0.001 | [5] -0.012

BOD1L1 (UniProt Q8NFC6)
inactive: [1] 0.02 | [2] -0.022 | [3] -0.001 | [4] -0.051 | [5] -0.052
